Results taken from the supplement of paper PMC6078165.
Values are relative to the signal before dosing, not to a vehicle control; the signal also falls without drug.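 Labels refer to human fibroblasts, largely primary: uterine (C12385, HUF), lung (H6013), bone (Hs27A), adrenal (HADF), skin (WS1), plus mammary HMF and breast cancer-associated Hs343T. Cancer lines are basal-like or mesenchymal-like triple-negative breast cancer. The paper counts as hits responses shifting over 3x the replicate standard deviation. The tissue of the other fibroblasts is not given here.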

Tested on: MDAMB436
Experiment: relative JC-1 red fluorescence (viability) vs pre-drug, coculture with fibroblast (fraction); higher = more viable cancer cells
Method: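 JC-1 labelled TNBC cells cocultured 1:1 (1,500 cells each) with CellTrace Violet stained primary or stromal fibroblasts in 384-well plates in FluoroBrite medium, treated with one of 42 anticancer drugs at 0.1, 1, 10 or 100 uM. JC-1 red fluorescence (mitochondrial integrity in cancer cells only) was read by plate reader every 8 h for 72 h. Values are normalised to each well's pre-drug value. The stock of one drug was tenfold lower, so its dose labels may be too high.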

CO[C@@]12[C@H](COC(N)=O)C3=C(C(=O)C(C)=C(N)C3=O)N1C[C@@H]1N[C@@H]12 [Mitomycin C]
relative JC-1 red fluorescence
Settings	8 h	16 h	24 h	32 h	40 h	48 h	56 h	64 h	72 h
10 µM, coculture fibroblast: C12385	0.8273	0.742	0.671	0.604	0.552	0.535	0.518	0.509	0.507
10 µM, coculture fibroblast: H6013	0.829	0.7479	0.69	0.68	0.653	0.656	0.624	0.607	0.57
10 µM, coculture fibroblast: H6019	0.7436	0.6513	0.6164	0.527	0.474	0.448	0.421	0.413	0.408
10 µM, coculture fibroblast: H6076	0.777	0.656	0.573	0.526	0.49	0.462	0.447	0.446	0.432
10 µM, coculture fibroblast: H6231	0.7672	0.677	0.6033	0.5481	0.526	0.4854	0.487	0.473	0.462
10 µM, coculture fibroblast: HADF	0.844	0.778	0.713	0.691	0.651	0.652	0.592	0.57	0.522
10 µM, coculture fibroblast: HCFa	0.908	0.859	0.804	0.773	0.718	0.704	0.634	0.613	0.563
10 µM, coculture fibroblast: HCPF	0.7824	0.7058	0.63	0.577	0.548	0.519	0.506	0.495	0.491
10 µM, coculture fibroblast: HHSteC	0.8312	0.764	0.736	0.709	0.707	0.725	0.677	0.67	0.633
10 µM, coculture fibroblast: HMF	0.775	0.668	0.54	0.492	0.456	0.4256	0.405	0.389	0.382
10 µM, coculture fibroblast: HPFa	0.855	0.77	0.743	0.709	0.707	0.726	0.674	0.675	0.647
10 µM, coculture fibroblast: HUF	0.85	0.718	0.697	0.621	0.564	0.538	0.515	0.51	0.502
10 µM, coculture fibroblast: Hs5	0.848	0.74	0.676	0.608	0.5695	0.524	0.51	0.471	0.467
10 µM, coculture fibroblast: Hs27A	0.793	0.7443	0.75	0.749	0.765	0.806	0.782	0.782	0.715
10 µM, coculture fibroblast: Hs343T	0.7571	0.629	0.524	0.485	0.453	0.419	0.406	0.384	0.379
10 µM, coculture fibroblast: WS1	0.824	0.697	0.649	0.579	0.52	0.498	0.475	0.461	0.461
100 µM, coculture fibroblast: C12385	0.762	0.72	0.723	0.652	0.636	0.631	0.631	0.634	0.638
100 µM, coculture fibroblast: H6013	0.7703	0.75	0.746	0.738	0.744	0.778	0.747	0.747	0.715
100 µM, coculture fibroblast: H6019	0.7369	0.6852	0.698	0.6555	0.643	0.6391	0.6182	0.6097	0.6033
100 µM, coculture fibroblast: H6076	0.658	0.559	0.584	0.5568	0.5639	0.559	0.581	0.593	0.587
100 µM, coculture fibroblast: H6231	0.6583	0.624	0.7004	0.6444	0.6502	0.642	0.654	0.655	0.642
100 µM, coculture fibroblast: HADF	0.787	0.792	0.792	0.785	0.825	0.876	0.834	0.834	0.793
100 µM, coculture fibroblast: HCFa	0.7779	0.7367	0.731	0.737	0.764	0.804	0.765	0.772	0.731
100 µM, coculture fibroblast: HCPF	0.663	0.608	0.641	0.604	0.611	0.597	0.594	0.592	0.582
100 µM, coculture fibroblast: HHSteC	0.8097	0.8017	0.784	0.761	0.765	0.78	0.737	0.729	0.689
100 µM, coculture fibroblast: HMF	0.666	0.615	0.652	0.621	0.6437	0.6374	0.6592	0.65173	0.656
100 µM, coculture fibroblast: HPFa	0.8145	0.79604	0.772	0.74948	0.7722	0.8019	0.7587	0.7595	0.728
100 µM, coculture fibroblast: HUF	0.792	0.714	0.703	0.641	0.614	0.619	0.61	0.611	0.61
100 µM, coculture fibroblast: Hs5	0.673	0.597	0.5926	0.5444	0.5483	0.522	0.546	0.533	0.532
100 µM, coculture fibroblast: Hs27A	0.7703	0.7824	0.8054	0.817	0.8509	0.94	0.859	0.855	0.786
100 µM, coculture fibroblast: Hs343T	0.678	0.5793	0.571	0.538	0.522	0.505	0.516	0.508	0.519
100 µM, coculture fibroblast: WS1	0.74	0.702	0.714	0.667	0.664	0.67	0.67	0.666	0.6649
